Reference: paper PMC6065441
Results are given in words; binding and its absence hold for the method and conditions named. Some entries that bind do so weakly or less than the wild type.

Experiments:
[1] = target: GNL1 full length, fusion with GAL4 DNA-DB/c-MYC (bait) (human) (UniProt P36915); experiment: two-hybrid; clone A14/1 transformed again into AH109 yeast expressing GNL1, selection on SD X-α-Gal/-Ade/-His/-Leu/-Trp agar plates, blue colonies
[2] = target: GNL1 full length, fusion with GAL4 DNA-DB/c-MYC (bait) (human) (UniProt P36915); experiment: two-hybrid; library screen: GNL1 in pGBKT7 as bait, human leukocyte cDNA library in pAct2 as prey, AH109 yeast, selection on SD X-α-Gal/-Ade/-His/-Leu/-Trp, positive clones sequenced

binding [1]: binds
binding [2]: binds
Substance: RPS20 amino acids 41 to 119 (clone A14/1), fusion with GAL4-AD/HA (prey) (from UniProt P60866 41-119) (domain or fragment)
